Results taken from the supplement of paper PMC12823440, “Inhibitors supercharge kinase turnover through native proteolytic circuits” (Nature, 2025).
Counter-ions that a name gives are not always drawn. Some of the results follow. The calls rarely recur for the same compound in another form.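 Kinases, fused to nanoluciferase, were expressed in K562 cells; luminescence was measured every 4 h from 2 to 18 h as percent of control (DMSO = 100%, positive control = 0%). A time point is decreased if signal falls significantly (2 sigma). Hits were called by the authors by a rule that is not shown; the count of time points alone does not decide it.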

By UniProt entry, the sequences of proteins in these tests, tags left out. Where a name states a change or a piece, a line headed by the entry shows the natural chain unless it says otherwise.
UniProt P50613: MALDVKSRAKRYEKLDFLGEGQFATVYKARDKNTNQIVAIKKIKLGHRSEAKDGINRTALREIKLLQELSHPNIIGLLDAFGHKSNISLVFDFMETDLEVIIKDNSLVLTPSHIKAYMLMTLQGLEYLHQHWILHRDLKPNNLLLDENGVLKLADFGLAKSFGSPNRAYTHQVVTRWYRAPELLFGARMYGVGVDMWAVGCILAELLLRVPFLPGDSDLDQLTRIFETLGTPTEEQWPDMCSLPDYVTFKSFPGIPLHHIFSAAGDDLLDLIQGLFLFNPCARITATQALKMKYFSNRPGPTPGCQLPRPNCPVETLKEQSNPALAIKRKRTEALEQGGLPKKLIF
UniProt P50750, whole entry: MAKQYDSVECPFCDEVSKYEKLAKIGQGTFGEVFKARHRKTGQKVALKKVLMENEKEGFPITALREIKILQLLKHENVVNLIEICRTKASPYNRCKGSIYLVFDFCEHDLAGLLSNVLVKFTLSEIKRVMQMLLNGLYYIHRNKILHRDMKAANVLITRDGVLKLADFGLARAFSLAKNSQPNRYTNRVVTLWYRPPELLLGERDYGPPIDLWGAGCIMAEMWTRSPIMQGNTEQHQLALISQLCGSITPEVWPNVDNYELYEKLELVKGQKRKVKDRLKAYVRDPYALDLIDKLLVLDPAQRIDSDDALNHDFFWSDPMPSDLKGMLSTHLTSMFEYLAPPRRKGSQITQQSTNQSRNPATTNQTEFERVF
UniProt O96017, whole entry: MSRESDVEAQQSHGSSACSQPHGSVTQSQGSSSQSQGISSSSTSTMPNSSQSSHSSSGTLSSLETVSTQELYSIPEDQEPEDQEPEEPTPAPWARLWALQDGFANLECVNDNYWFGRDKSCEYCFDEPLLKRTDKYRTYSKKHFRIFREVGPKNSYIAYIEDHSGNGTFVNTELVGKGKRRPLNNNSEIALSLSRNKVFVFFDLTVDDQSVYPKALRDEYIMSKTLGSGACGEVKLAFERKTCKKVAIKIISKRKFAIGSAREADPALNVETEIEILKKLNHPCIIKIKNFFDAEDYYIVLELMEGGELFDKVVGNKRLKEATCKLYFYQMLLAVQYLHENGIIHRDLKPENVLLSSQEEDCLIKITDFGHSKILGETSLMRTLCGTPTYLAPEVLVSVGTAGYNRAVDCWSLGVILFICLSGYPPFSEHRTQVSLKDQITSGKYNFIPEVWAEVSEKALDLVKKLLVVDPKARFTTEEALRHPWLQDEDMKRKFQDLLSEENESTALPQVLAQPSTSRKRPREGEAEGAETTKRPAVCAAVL
UniProt P07333, whole entry: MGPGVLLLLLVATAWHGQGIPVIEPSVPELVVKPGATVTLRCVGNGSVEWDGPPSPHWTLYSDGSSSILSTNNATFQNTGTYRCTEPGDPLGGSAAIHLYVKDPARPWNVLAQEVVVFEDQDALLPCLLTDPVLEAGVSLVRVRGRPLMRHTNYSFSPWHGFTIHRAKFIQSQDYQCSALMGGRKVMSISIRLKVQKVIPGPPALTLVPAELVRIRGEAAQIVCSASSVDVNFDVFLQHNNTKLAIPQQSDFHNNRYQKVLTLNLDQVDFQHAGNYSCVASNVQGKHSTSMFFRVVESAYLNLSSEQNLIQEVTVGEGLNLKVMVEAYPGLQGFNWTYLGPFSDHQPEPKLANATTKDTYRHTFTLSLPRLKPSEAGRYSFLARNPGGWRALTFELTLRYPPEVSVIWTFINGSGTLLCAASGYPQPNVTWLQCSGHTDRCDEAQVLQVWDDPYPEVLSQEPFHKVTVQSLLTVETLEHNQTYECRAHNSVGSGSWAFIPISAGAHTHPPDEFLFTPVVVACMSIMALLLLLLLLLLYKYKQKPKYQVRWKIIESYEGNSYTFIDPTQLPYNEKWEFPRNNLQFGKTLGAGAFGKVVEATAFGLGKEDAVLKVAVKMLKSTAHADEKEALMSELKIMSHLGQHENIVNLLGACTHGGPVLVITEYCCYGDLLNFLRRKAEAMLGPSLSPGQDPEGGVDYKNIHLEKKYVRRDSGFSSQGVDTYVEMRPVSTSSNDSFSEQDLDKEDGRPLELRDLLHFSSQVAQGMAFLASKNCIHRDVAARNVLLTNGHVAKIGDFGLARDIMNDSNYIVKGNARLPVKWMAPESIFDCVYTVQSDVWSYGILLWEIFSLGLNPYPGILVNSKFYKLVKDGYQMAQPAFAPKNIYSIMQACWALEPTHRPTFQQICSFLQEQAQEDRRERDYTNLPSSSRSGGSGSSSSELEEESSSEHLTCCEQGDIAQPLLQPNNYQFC
UniProt P41240: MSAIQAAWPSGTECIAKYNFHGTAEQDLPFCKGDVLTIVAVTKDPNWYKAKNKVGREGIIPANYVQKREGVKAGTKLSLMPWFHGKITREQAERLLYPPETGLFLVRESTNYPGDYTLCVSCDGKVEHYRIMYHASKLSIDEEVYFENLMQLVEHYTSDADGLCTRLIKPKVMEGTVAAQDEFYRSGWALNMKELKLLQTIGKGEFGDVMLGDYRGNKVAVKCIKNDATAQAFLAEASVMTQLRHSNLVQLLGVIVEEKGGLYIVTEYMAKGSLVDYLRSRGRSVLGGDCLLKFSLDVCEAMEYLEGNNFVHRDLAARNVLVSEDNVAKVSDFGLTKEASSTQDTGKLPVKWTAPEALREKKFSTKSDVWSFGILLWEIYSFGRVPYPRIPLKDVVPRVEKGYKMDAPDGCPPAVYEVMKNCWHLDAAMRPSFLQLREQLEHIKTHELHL
UniProt P48730: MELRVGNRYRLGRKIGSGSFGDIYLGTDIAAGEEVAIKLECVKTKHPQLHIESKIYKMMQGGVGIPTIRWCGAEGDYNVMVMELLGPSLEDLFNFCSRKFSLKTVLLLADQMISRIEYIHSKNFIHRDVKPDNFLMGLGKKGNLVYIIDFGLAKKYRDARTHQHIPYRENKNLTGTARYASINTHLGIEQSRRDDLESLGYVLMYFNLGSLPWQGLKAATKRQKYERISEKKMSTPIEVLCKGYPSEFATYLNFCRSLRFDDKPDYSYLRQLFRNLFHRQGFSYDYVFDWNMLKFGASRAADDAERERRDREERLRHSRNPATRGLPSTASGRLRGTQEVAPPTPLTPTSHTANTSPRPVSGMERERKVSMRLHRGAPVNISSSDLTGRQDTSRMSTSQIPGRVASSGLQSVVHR
UniProt Q08345: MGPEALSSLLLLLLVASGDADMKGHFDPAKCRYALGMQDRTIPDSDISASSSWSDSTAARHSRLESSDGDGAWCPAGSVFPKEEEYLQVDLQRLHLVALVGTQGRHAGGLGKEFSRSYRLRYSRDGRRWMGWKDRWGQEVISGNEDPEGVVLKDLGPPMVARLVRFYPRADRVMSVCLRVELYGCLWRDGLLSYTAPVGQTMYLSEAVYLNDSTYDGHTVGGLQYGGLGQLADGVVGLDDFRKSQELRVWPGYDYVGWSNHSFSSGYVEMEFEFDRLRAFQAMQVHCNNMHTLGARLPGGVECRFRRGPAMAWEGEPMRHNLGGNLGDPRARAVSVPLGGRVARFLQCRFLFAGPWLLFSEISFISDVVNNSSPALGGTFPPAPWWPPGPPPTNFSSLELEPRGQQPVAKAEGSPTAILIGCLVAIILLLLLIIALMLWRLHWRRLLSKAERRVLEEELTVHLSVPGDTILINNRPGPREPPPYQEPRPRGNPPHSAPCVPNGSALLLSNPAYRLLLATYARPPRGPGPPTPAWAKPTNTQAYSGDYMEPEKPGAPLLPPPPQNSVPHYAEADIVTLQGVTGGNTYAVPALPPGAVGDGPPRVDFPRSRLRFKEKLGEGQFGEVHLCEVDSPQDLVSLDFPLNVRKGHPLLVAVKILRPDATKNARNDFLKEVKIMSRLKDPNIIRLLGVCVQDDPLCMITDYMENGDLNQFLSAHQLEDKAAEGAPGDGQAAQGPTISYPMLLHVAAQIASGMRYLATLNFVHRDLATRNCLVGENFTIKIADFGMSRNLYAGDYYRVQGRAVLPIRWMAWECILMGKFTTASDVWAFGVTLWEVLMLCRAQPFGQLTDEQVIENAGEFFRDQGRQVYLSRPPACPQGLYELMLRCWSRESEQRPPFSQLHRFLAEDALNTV
UniProt Q9Y463, whole entry, looked up: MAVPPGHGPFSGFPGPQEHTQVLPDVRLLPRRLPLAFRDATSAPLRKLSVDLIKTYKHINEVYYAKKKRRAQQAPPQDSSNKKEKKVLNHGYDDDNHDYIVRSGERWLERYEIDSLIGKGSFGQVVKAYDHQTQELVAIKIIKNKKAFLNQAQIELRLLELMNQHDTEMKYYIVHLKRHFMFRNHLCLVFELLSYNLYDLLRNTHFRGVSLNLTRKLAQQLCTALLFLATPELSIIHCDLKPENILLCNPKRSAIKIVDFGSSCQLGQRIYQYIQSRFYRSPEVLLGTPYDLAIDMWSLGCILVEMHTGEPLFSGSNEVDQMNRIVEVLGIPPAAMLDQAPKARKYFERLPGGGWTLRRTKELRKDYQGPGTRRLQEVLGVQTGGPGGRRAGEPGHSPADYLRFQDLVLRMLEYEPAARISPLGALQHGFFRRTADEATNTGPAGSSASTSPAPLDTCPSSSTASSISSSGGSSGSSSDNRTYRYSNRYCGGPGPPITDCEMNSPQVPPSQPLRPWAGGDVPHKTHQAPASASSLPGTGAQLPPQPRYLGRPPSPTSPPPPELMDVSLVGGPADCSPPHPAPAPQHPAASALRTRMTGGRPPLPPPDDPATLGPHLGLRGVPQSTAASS
UniProt Q92630: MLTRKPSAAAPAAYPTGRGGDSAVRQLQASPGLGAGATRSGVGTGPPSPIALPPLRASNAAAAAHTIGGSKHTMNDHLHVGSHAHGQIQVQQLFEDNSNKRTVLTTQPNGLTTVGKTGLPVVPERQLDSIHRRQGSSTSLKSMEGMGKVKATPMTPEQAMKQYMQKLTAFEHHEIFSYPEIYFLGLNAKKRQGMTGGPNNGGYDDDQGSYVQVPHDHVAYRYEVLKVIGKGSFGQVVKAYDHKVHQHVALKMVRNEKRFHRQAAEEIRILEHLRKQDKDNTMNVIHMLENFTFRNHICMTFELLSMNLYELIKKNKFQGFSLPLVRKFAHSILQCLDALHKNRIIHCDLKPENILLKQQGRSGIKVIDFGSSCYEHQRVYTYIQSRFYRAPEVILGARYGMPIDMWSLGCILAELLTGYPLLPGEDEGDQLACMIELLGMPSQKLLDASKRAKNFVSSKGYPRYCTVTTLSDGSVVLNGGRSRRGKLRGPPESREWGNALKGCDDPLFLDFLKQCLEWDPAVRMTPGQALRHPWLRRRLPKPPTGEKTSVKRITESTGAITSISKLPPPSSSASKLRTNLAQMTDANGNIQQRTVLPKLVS
UniProt P21860, whole entry: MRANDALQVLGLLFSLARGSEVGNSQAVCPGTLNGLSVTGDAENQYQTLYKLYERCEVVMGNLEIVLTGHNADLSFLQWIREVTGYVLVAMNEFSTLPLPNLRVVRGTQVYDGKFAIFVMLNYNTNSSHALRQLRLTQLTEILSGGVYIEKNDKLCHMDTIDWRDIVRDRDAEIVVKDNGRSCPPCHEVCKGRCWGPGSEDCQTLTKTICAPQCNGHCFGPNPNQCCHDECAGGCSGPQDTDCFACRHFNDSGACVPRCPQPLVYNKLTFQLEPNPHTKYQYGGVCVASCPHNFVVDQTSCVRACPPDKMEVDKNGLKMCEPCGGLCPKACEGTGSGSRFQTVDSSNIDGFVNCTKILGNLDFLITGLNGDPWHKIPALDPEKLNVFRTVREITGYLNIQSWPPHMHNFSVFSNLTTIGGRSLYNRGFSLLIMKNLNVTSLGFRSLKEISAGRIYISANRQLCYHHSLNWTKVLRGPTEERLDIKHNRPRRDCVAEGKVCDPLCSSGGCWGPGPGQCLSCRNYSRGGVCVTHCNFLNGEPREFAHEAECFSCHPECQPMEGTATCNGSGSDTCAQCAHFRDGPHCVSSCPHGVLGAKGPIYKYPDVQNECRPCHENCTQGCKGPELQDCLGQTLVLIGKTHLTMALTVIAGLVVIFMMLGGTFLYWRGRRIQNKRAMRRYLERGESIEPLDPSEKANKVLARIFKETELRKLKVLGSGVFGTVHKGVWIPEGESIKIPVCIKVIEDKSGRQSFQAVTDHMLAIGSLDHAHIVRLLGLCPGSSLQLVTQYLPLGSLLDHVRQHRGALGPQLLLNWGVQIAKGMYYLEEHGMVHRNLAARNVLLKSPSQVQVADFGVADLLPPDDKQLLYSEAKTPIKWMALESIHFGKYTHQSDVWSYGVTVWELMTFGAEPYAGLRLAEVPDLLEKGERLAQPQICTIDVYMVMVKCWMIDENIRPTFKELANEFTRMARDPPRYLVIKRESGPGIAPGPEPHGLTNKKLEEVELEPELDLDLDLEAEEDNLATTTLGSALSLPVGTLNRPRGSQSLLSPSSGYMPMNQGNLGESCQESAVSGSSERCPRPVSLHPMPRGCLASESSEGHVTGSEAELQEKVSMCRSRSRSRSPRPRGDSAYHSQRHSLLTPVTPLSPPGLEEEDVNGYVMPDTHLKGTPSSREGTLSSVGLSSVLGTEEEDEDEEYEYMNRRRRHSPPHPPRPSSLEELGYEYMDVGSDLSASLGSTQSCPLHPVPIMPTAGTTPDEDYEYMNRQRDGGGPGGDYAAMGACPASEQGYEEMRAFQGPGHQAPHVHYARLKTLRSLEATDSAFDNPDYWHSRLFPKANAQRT

Experiments:
Assay in all cases: kinase-Nluc reporter destabilization hit call (1 = scored as downregulated) (binary); higher = compound decreases kinase abundance
Conditions in all cases: K562; 2-18 h
[1] = molecular target: CDK7 (UniProt P50613)
[2] = molecular target: CDK9 (UniProt P50750)
[3] = molecular target: CHEK2 (UniProt O96017)
[4] = molecular target: CSF1R (UniProt P07333)
[5] = molecular target: CSK (UniProt P41240)
[6] = molecular target: CSNK1A1 (UniProt P48729)
[7] = molecular target: CSNK1D (UniProt P48730)
[8] = molecular target: DDR1 (UniProt Q08345)
[9] = molecular target: DYRK1B (UniProt Q9Y463)
[10] = molecular target: DYRK2 (UniProt Q92630)
[11] = molecular target: EGFR (UniProt P00533)
[12] = molecular target: EGFR_G719S (UniProt P00533)
[13] = molecular target: EGFR_G719S_T790M (UniProt P00533)
[14] = molecular target: EGFR_L718V (UniProt P00533)
[15] = molecular target: EGFR_L858R (UniProt P00533)
[16] = molecular target: EGFR_L861Q (UniProt P00533)
[17] = molecular target: EGFR_T790M (UniProt P00533)
[18] = molecular target: EPHA2 (UniProt P29317)
[19] = molecular target: ERBB3 (UniProt P21860)
[20] = molecular target: ERBB4_R711C (clone: ERBB4_mut) (UniProt Q15303)

Measured: kinase-Nluc reporter destabilization hit call

CNC(=O)c1c(F)cccc1Nc1nc(Nc2cc3c(cc2OC)CCN3C(=O)CN(C)C)nc2[nH]ccc12 (10 µM)
inactive: [1] 0 | [2] 0 | [3] 0 | [4] 0 | [5] 0 | [6] 0 | [7] 0 | [8] 0 | [9] 0 | [10] 0 | [11] 0 | [12] 0 | [13] 0 | [14] 0 | [15] 0 | [16] 0 | [17] 0 | [18] 0 | [19] 0 | [20] 0

CNC(=O)c1ccc(C)c(-n2c(C)cc(OCc3ccc(F)cc3F)c(Br)c2=O)c1 (10 µM)
inactive: [1] 0 | [2] 0 | [3] 0 | [4] 0 | [5] 0 | [6] 0 | [7] 0 | [8] 0 | [9] 0 | [10] 0 | [11] 0 | [12] 0 | [13] 0 | [14] 0 | [15] 0 | [16] 0 | [17] 0 | [18] 0 | [19] 0 | [20] 0

NCCNS(=O)(=O)c1cccc2c(Cl)cccc12 [A-3 (hydrochloride)] (10 µM)
inactive: [1] 0 | [2] 0 | [3] 0 | [4] 0 | [5] 0 | [6] 0 | [7] 0 | [8] 0 | [9] 0 | [10] 0 | [11] 0 | [12] 0 | [13] 0 | [14] 0 | [15] 0 | [16] 0 | [17] 0 | [18] 0 | [19] 0 | [20] 0

COc1ccc(-c2ccc3c(N4CCOCC4)nc(N4C[C@@H](C)O[C@@H](C)C4)nc3n2)cc1CO (2.5 µM)
inactive: [1] 0 | [2] 0 | [3] 0 | [4] 0 | [5] 0 | [6] 0 | [7] 0 | [8] 0 | [9] 0 | [10] 0 | [11] 0 | [12] 0 | [13] 0 | [14] 0 | [15] 0 | [16] 0 | [17] 0 | [18] 0 | [19] 0 | [20] 0

Cn1cc(-c2cnn3c(N)c(Br)c([C@@H]4CCCNC4)nc23)cn1 (2.5 µM)
inactive: [1] 0 | [2] 0 | [3] 0 | [4] 0 | [5] 0 | [6] 0 | [7] 0 | [8] 0 | [9] 0 | [10] 0 | [11] 0 | [12] 0 | [13] 0 | [14] 0 | [15] 0 | [16] 0 | [17] 0 | [18] 0 | [19] 0 | [20] 0

CC(C)(C)c1nc(-c2cccc(NS(=O)(=O)c3c(F)cccc3F)c2F)c(-c2ccnc(N)n2)s1 [Dabrafenib] (2.5 µM)
inactive: [1] 0 | [2] 0 | [3] 0 | [4] 0 | [5] 0 | [6] 0 | [7] 0 | [8] 0 | [9] 0 | [10] 0 | [11] 0 | [12] 0 | [13] 0 | [14] 0 | [15] 0 | [16] 0 | [17] 0 | [18] 0 | [19] 0 | [20] 0

COc1ccc(Cl)c(Nc2nc3ccccc3nc2NS(=O)(=O)c2cccc(NC(=O)C(C)(C)N)c2)c1 [Pilaralisib] (10 µM)
inactive: [1] 0 | [2] 0 | [3] 0 | [4] 0 | [5] 0 | [6] 0 | [7] 0 | [8] 0 | [9] 0 | [10] 0 | [11] 0 | [12] 0 | [13] 0 | [14] 0 | [15] 0 | [16] 0 | [17] 0 | [18] 0 | [19] 0 | [20] 0

N#Cc1c(C2CCNCC2)cc(-c2c(O)cccc2OCC2CC2)nc1N [ACHP (Hydrochloride)] (10 µM)
inactive: [1] 0 | [2] 0 | [3] 0 | [4] 0 | [5] 0 | [6] 0 | [7] 0 | [8] 0 | [9] 0 | [10] 0 | [11] 0 | [12] 0 | [13] 0 | [14] 0 | [15] 0 | [16] 0 | [17] 0 | [18] 0 | [19] 0 | [20] 0

Cn1cc(-c2ccc3c(c2)CCN3C(=O)Cc2cccc(C(F)(F)F)c2)c2c(N)ncnc21 (2.5 µM)
inactive: [1] 0 | [2] 0 | [3] 0 | [4] 0 | [5] 0 | [6] 0 | [7] 0 | [8] 0 | [9] 0 | [10] 0 | [11] 0 | [12] 0 | [13] 0 | [14] 0 | [15] 0 | [16] 0 | [17] 0 | [18] 0 | [19] 0 | [20] 0

Cc1nc(-c2cn3c(n2)-c2ccc(-c4cnn(C(C)(C)C(N)=O)c4)cc2OCC3)n(C(C)C)n1 [Taselisib] (10 µM)
inactive: [1] 0 | [2] 0 | [3] 0 | [4] 0 | [5] 0 | [6] 0 | [7] 0 | [8] 0 | [9] 0 | [10] 0 | [11] 0 | [12] 0 | [13] 0 | [14] 0 | [15] 0 | [16] 0 | [17] 0 | [18] 0 | [19] 0 | [20] 0

3 structures from above, arranged by count of non-hydrogen atoms, ascending.
N#Cc1c(C2CCNCC2)cc(-c2c(O)cccc2OCC2CC2)nc1N [ACHP (Hydrochloride)] (10 µM)
inactive: [1] 0 | [2] 0 | [3] 0 | [4] 0 | [5] 0 | [6] 0 | [7] 0 | [8] 0 | [9] 0 | [10] 0 | [11] 0 | [12] 0 | [13] 0 | [14] 0 | [15] 0 | [16] 0 | [17] 0 | [18] 0 | [19] 0 | [20] 0

Cn1cc(-c2ccc3c(c2)CCN3C(=O)Cc2cccc(C(F)(F)F)c2)c2c(N)ncnc21 (2.5 µM)
inactive: [1] 0 | [2] 0 | [3] 0 | [4] 0 | [5] 0 | [6] 0 | [7] 0 | [8] 0 | [9] 0 | [10] 0 | [11] 0 | [12] 0 | [13] 0 | [14] 0 | [15] 0 | [16] 0 | [17] 0 | [18] 0 | [19] 0 | [20] 0

COc1ccc(Cl)c(Nc2nc3ccccc3nc2NS(=O)(=O)c2cccc(NC(=O)C(C)(C)N)c2)c1 [Pilaralisib] (10 µM)
inactive: [1] 0 | [2] 0 | [3] 0 | [4] 0 | [5] 0 | [6] 0 | [7] 0 | [8] 0 | [9] 0 | [10] 0 | [11] 0 | [12] 0 | [13] 0 | [14] 0 | [15] 0 | [16] 0 | [17] 0 | [18] 0 | [19] 0 | [20] 0

(further entries)

C[C@@]1(c2ncncc2F)NC(=O)c2cc(-c3cn[nH]c3)ccc21 (10 µM)
inactive: [1] 0 | [2] 0 | [3] 0 | [4] 0 | [5] 0 | [6] 0 | [7] 0 | [8] 0 | [9] 0 | [10] 0 | [11] 0 | [12] 0 | [13] 0 | [14] 0 | [15] 0 | [16] 0 | [17] 0 | [18] 0 | [19] 0 | [20] 0

NC(=O)c1nc(Nc2ccccc2)sc1NC(=O)C1CCCCC1 (10 µM)
inactive: [1] 0 | [2] 0 | [3] 0 | [4] 0 | [5] 0 | [6] 0 | [7] 0 | [8] 0 | [9] 0 | [10] 0 | [11] 0 | [12] 0 | [13] 0 | [14] 0 | [15] 0 | [16] 0 | [17] 0 | [18] 0 | [19] 0 | [20] 0

Cc1[nH]c(/C=C2\C(=O)Nc3ccccc32)c(C)c1CCC(=O)O [(Z)-Orantinib] (10 µM)
inactive: [1] 0 | [2] 0 | [3] 0 | [4] 0 | [5] 0 | [6] 0 | [8] 0 | [9] 0 | [10] 0 | [18] 0 | [19] 0 | [20] 0

COc1cc2c(N3CCN(C(=O)Nc4ccc(OC(C)C)cc4)CC3)ncnc2cc1OCCCN1CCCCC1 [Tandutinib (hydrochloride)] (10 µM)
inactive: [1] 0 | [2] 0 | [3] 0 | [5] 0 | [6] 0 | [7] 0 | [8] 0 | [9] 0 | [10] 0 | [18] 0 | [19] 0 | [20] 0

C[C@@H]1CCN(C(=O)CC#N)C[C@@H]1N(C)c1ncnc2[nH]ccc12 [Tofacitinib (citrate)] (10 µM)
inactive: [1] 0 | [2] 0 | [3] 0 | [4] 0 | [5] 0 | [6] 0 | [8] 0 | [9] 0 | [10] 0 | [18] 0 | [19] 0 | [20] 0

CCCS(=O)(=O)Nc1ccc(F)c(C(=O)c2c[nH]c3ncc(-c4ccc(Cl)cc4)cc23)c1F [Vemurafenib] (10 µM)
inactive: [1] 0 | [2] 0 | [3] 0 | [4] 0 | [5] 0 | [6] 0 | [7] 0 | [8] 0 | [9] 0 | [10] 0 | [11] 0 | [12] 0 | [13] 0 | [14] 0 | [15] 0 | [16] 0 | [17] 0 | [18] 0 | [19] 0 | [20] 0
